Percent viability data for 15 molecules are collected here from the supplement of paper PMC8256030.

“And” between values parts separate entries of the source, which are not always exact repeats. Identical values can stand only once. The list shows a part of the results. Repeats in this data set agree poorly, so a single value says little.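 HEK293T cells were given each compound shortly before transfection with a reporter in which red mCherry is followed by the SARS-CoV-2 frameshift element and then GFP in the −1 frame, so GFP appears only after frameshifting.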

The test deals with HEK293T. As to the kind of experiment: percent viability (nuclei count) relative to control; higher = more viable cells. The following applies: 10 µM; 24 h.
As to `CN(C)CCC(c1ccccc1)c1ccccn1` (stereo not given) [pheniramine], the percent viability turned out to be 177%. With `CNC(=O)c1cccc(NCC(=O)NCCc2ccc(OC)c(OC)c2)c1` [ecabapide] the figure was 288%; with `CC(C)NCC(O)COc1cccc2ccccc12` (stereo not given) [dibudinate], 160%.

Regarding `CO/N=C(\C(=O)N[C@@H]1C(=O)N2C(C(=O)O)=C(COC(C)=O)CS[C@H]12)c1csc(N)n1` [Cefotaxime Acid], the percent viability stood at 199%. Regarding `CC(=O)CC(c1ccccc1)c1c(O)c2ccccc2oc1=O` (stereo not given), the percent viability worked out at 177%.

As to `CC1=C(/C=C/C(C)=C/C=C/C(C)=C/C(=O)Nc2ccc(O)cc2)C(C)(C)CCC1` [Fenretinide], the percent viability is 24.5%. With `Cc1cc(O)cc(C)c1Cl` the figure was 127%; with `Nc1ccc(C(=O)O)c(O)c1` [4-Aminosalicylic acid], 146%; with `Cc1ccc(-c2cc(C(F)(F)F)nn2-c2ccc(S(N)(=O)=O)cc2)cc1` [celecoxib], 202% and 360%. As to `C[C@@H](O)[C@H]1C(=O)N2C(C(=O)O)=C(S[C@@H]3CN[C@H](CNS(N)(=O)=O)C3)[C@H](C)[C@H]12` [doripenem], the percent viability turned out to be 209%. With `C=CCCCCCCCCC(=O)[O-].C=CCCCCCCCCC(=O)[O-].[Zn+2]`, the percent viability came to 175%. Next, `COc1ccc(C(=O)NCc2cccnc2)cc1C(=O)NCc1cccnc1` [Picotamide]: 167%; `NC(=O)N/N=C/c1ccc([N+](=O)[O-])o1` [Nitrofural]: 263%. For `CC(C)NC[C@H](O)COc1ccc(O)cc1` [prenalterol], the percent viability came to 204%. Consider `COC(=O)C1=C(C)NC(C)=C(C(=O)OCCN2CCN(C(c3ccccc3)c3ccccc3)CC2)C1c1cccc([N+](=O)[O-])c1` (stereo not given) [manidipine], for which the percent viability was 160% and 219%.
